# PubChem BioAssay AID504786 | Drosophila RNAi Screening Center – 2011
# Aim: 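Positive regulators of HIF-driven reporter output in Drosophila cells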 (primary screen)
# Cells: Drosophila S2 cells with a stable HIF luciferase reporter
# Knock-down reagent: long dsRNA against Drosophila genes, about 0.2 µg dsRNA per well of a 384-well plate
# Timing: three days of knock-down, then 20 h of DFO before reading
# Challenge: desferrioxamine (DFO) at 100 µM, an iron chelator that mimics hypoxia, for 20 h
# Detection: 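HIF reporter luminescence in cells given 100 µM DFO for 20 h, using the mouse ldh-a hypoxia-response element, scored as per-plate z-scores; higher means greater loss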
# Direction: z-score: higher = stronger loss of HIF reporter signal
# In all, the deposit lists about 21,000 reagents; shown is a random part of those with a known target gene and a result. 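Primary screen; positive scores mean lost reporter signal, so the sign may be inverted from the usual convention.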 Further read-outs or replicates are left out here.
Target gene,amplicon,"z-score, replicate 1"
l(2)03659 (GeneID 47905),DRSC07269,-0.3
l(2)03659 (GeneID 47905),DRSC07638,-0.3
CG34263 (GeneID 5740488),DRSC07866,-0.4
dmt (GeneID 41180),DRSC16932,1.1
gammaTub23C (GeneID 33501),DRSC00820,-0.2
spas (GeneID 42846),DRSC15929,0.1
CG33233 (GeneID 2769005),DRSC08239,-0.2
CG7886 (GeneID 41775),DRSC16333,-0.3
CG3436 (GeneID 33180),DRSC00605,2.1
toe (GeneID 39418),DRSC09174,-0.3
toe (GeneID 39418),DRSC09783,-0.3
CG11192 (GeneID 37309),DRSC06057,0
Tao (GeneID 32948),DRSC19573,-0.2
Tao (GeneID 32948),DRSC19574,-0.5
S1P (GeneID 40399),DRSC11810,-0.3
CG7386 (GeneID 38719),DRSC10832,-0.4
CG8301 (GeneID 41160),DRSC16405,-0.2
CG15196 (GeneID 32084),DRSC19643,-0.2
CG13855 (GeneID 42629),DRSC14705,0.2
yellow-e3 (GeneID 41651),DRSC15170,-0.3
CG33333 (GeneID 2768672),DRSC13233,-0.3
CG16825 (GeneID 34739),DRSC02526,-0.4
CG12056 (GeneID 31855),DRSC17796,-0.3
Saf-B (GeneID 42958),DRSC16167,0.2
CG2267 (GeneID 43639),DRSC15435,-0.2
CG14671 (GeneID 40671),DRSC12257,-0.4
CG10341 (GeneID 35125),DRSC02040,-0.4
CG34006 (retired record) (GeneID 3885652),DRSC13817,0.2
Acp32CD (GeneID 34531),DRSC01858,0
nrv1 (GeneID 33952),DRSC03382,-0.4
CG9014 (GeneID 34777),DRSC01979,-0.4
CG17687 (GeneID 39495),DRSC10279,0.1
BHD (GeneID 38793),DRSC11017,-0.3
beta3GalTII (GeneID 35848),DRSC07253,-0.1

5 entries already listed, arranged by “z-score, replicate 1”, highest first:
Target gene,amplicon,"z-score, replicate 1"
CG13855 (GeneID 42629),DRSC14705,0.2
CG15196 (GeneID 32084),DRSC19643,-0.2
yellow-e3 (GeneID 41651),DRSC15170,-0.3
CG33333 (GeneID 2768672),DRSC13233,-0.3
CG16825 (GeneID 34739),DRSC02526,-0.4
